Patent US11911439B2, “Beta-casein A2 and prevention of inflammation of the bowel” (THE A2 MILK COMPANY LIMITED, priority 2013, dated 2024)
Some of these results come from one statement about several compounds together. Where a SMILES comes first, the peptide text is derived from it.

Tested on: SH-SY5Y human neuronal cells
Conditions: neuronal cells and GI epithelial cells (FIG. 6), single exposure
Protocol: Pre-treatment in cells was performed for different time points for 30 min, 4, 24 and 48 h as described previously (Trivedi M., et al.; Mol. Pharm., 2014). Briefly, SH-SY5Y human neuronal cells and Caco-2 Gut epithelial cells were plated in six-well plates and were pretreated with drugs and incubated for various times prior to measuring uptake. Media were aspirated and cells were washed with 600 μL of HBSS at 37° C. Non-radioactive HBSS was aspirated, replaced with 600 μL of 37° C. HBSS containing [^35S]-cysteine, (1 μCi/1 mL), 10 μM unlabelled cysteine and 100 μM DTT, and the cells were incubated for 5 min. The [^35S]-cysteine/HBSS mixture was aspirated and treatment was terminated by two washes with ice-cold HBSS. Cells were then lysed with 600 μL of dH2O, scraped, collected in 1.5 mL microcentrifuge tubes, and sonicated for 10 s. 100 μL of each sample was aliquoted for protein assay. 200 μL of each sample (in triplicate) was aliquoted into scintillation vials with 4 mL of scintillation fluid, vortexed, and counted for radioactivity, normalized against protein content. […] Each * symbol in these Figures indicates a statistically significant difference (p<0.05) compared against the untreated control, and each #symbol indicates a statistically significant difference (p<0.005) compared against the untreated control.

CC[C@H](C)[C@H](NC(=O)[C@@H]1CCCN1C(=O)CNC(=O)[C@@H]1CCCN1C(=O)[C@H](Cc1ccccc1)NC(=O)[C@@H]1CCCN1C(=O)[C@@H](N)Cc1ccc(O)cc1)C(=O)O [BCM-7, beta-casomorphin-7] (H-YPFPGPI-OH; N-terminus and C-terminus assumed)
time through which inhibition of cysteine uptake was sustained: ≥ 48 h
